Source: the supplement of paper PMC10849652
Some of the results follow.

Sequences of proteins named here, by UniProt entry; tags and fusion partners are left off. A change or cut given only in a name is not applied to a line headed by its entry.
UniProt O75438, whole entry, looked up: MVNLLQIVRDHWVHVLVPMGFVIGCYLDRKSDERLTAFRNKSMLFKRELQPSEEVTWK
UniProt O43674, whole entry, looked up: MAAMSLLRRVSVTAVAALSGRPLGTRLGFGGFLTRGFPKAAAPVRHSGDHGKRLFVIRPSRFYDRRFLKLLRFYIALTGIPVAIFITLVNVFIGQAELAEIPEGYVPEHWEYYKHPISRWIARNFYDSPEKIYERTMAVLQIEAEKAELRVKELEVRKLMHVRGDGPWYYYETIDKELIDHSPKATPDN
UniProt P46934: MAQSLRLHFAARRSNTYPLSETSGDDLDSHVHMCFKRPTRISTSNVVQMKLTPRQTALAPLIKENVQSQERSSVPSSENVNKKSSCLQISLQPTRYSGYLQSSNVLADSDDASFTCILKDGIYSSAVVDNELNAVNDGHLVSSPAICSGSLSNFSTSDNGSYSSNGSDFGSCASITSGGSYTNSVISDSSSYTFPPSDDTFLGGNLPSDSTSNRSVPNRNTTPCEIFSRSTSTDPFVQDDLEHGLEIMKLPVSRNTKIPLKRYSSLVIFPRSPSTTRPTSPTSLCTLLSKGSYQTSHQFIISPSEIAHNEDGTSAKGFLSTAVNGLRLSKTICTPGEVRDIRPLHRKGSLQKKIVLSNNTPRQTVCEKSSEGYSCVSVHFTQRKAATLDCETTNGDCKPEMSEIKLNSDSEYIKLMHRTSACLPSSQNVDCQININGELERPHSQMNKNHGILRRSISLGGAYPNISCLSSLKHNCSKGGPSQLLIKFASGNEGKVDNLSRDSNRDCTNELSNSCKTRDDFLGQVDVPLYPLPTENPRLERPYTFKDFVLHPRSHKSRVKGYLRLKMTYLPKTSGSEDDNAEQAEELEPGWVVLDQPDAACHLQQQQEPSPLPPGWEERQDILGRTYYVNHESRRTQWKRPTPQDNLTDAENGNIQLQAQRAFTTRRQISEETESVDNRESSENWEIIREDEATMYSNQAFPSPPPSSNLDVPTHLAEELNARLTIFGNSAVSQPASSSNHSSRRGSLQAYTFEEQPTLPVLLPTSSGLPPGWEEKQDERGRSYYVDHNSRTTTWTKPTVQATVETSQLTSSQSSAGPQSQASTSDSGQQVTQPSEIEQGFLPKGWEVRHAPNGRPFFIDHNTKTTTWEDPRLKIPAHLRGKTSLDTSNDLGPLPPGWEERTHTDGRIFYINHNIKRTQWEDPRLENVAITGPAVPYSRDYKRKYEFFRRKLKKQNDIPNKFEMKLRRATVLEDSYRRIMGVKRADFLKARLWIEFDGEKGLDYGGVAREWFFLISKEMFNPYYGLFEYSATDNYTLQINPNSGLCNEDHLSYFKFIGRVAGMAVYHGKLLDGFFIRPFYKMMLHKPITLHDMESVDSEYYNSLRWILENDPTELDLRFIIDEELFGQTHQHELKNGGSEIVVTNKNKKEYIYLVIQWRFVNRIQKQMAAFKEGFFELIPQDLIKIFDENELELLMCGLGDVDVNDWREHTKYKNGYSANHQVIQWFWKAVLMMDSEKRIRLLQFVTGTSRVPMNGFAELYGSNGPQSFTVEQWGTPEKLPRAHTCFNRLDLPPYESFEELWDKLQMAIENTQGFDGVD
UniProt P43490: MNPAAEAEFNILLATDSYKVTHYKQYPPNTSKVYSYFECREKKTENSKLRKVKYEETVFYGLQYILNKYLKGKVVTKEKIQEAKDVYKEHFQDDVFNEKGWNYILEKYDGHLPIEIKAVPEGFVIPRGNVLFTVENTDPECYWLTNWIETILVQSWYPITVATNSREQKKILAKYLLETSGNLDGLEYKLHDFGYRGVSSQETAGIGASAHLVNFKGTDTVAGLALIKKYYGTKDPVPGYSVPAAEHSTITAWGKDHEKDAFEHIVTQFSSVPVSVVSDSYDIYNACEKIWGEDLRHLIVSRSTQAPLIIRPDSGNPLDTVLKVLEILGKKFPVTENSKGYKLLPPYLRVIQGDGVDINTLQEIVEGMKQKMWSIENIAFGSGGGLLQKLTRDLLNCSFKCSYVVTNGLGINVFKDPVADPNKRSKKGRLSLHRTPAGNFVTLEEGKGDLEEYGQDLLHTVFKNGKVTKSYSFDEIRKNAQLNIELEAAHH
UniProt Q9Y375: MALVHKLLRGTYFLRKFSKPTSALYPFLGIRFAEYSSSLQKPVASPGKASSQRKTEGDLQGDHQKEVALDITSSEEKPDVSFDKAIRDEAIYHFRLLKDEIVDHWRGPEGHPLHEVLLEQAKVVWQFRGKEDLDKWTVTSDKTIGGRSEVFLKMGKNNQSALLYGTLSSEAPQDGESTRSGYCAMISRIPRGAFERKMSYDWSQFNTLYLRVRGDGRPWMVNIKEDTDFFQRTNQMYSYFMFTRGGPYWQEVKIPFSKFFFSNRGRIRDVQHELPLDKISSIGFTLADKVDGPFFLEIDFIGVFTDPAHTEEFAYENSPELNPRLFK
UniProt P51970, whole entry, looked up: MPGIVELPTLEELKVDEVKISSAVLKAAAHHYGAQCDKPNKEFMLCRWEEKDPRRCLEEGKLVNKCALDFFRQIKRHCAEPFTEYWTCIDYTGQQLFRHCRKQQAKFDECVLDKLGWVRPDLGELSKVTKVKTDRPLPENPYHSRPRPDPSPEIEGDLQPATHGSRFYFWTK
UniProt Q6IA69: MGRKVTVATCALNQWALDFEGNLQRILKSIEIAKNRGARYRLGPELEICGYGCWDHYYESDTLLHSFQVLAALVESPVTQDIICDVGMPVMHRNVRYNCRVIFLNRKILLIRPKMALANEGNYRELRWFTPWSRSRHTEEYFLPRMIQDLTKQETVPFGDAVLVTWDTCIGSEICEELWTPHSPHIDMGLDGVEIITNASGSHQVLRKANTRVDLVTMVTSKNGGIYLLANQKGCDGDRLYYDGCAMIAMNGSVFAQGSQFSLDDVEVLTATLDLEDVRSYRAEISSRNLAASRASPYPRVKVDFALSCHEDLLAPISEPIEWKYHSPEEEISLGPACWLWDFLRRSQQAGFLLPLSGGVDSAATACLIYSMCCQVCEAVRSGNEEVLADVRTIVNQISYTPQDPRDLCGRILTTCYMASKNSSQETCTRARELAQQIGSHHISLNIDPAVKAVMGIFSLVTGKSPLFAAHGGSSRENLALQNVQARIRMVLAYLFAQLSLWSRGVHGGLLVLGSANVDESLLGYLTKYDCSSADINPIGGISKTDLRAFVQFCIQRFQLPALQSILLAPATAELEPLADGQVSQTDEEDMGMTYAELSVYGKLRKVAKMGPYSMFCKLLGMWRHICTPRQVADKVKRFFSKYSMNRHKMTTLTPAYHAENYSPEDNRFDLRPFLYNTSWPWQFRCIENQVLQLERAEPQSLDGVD
UniProt Q6P582, whole entry, looked up: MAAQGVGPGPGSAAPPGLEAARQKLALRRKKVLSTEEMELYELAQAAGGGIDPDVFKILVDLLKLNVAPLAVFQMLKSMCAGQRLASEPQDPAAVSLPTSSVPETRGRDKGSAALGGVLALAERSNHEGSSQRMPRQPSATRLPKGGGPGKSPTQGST
UniProt Q9GZZ1: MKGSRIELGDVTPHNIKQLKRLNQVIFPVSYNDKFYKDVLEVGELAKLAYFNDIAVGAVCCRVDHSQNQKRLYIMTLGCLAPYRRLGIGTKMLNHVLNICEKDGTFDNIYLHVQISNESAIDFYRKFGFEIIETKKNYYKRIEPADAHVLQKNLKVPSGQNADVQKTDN
UniProt Q9UGV2: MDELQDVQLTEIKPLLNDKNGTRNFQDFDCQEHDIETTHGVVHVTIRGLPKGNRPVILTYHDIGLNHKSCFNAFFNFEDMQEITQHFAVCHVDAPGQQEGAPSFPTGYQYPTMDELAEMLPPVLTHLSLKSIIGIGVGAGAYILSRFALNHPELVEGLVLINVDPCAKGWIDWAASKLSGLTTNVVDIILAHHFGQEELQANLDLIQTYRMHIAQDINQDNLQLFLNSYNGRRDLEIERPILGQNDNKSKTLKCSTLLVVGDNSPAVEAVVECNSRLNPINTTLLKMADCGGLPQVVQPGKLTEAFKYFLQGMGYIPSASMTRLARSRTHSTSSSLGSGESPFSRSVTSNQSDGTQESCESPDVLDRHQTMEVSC
UniProt P54802: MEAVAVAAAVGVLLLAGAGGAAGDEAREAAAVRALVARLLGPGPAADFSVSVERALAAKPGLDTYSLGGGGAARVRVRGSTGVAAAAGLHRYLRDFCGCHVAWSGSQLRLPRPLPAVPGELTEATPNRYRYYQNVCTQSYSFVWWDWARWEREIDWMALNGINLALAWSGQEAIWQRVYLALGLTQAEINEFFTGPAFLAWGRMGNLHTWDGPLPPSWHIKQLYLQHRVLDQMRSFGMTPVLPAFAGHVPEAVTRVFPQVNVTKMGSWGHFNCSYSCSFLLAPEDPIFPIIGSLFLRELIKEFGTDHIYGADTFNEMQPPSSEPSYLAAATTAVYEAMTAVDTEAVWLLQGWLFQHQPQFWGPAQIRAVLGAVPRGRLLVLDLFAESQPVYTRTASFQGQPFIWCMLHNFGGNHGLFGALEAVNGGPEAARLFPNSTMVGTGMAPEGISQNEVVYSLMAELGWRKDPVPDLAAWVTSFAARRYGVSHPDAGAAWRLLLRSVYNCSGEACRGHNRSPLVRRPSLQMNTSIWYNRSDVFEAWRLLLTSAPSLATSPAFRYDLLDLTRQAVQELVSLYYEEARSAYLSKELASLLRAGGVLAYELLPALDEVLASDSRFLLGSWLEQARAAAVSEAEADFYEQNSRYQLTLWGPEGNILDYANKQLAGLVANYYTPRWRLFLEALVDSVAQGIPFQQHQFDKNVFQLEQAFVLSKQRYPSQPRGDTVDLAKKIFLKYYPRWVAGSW
UniProt Q8NEY1: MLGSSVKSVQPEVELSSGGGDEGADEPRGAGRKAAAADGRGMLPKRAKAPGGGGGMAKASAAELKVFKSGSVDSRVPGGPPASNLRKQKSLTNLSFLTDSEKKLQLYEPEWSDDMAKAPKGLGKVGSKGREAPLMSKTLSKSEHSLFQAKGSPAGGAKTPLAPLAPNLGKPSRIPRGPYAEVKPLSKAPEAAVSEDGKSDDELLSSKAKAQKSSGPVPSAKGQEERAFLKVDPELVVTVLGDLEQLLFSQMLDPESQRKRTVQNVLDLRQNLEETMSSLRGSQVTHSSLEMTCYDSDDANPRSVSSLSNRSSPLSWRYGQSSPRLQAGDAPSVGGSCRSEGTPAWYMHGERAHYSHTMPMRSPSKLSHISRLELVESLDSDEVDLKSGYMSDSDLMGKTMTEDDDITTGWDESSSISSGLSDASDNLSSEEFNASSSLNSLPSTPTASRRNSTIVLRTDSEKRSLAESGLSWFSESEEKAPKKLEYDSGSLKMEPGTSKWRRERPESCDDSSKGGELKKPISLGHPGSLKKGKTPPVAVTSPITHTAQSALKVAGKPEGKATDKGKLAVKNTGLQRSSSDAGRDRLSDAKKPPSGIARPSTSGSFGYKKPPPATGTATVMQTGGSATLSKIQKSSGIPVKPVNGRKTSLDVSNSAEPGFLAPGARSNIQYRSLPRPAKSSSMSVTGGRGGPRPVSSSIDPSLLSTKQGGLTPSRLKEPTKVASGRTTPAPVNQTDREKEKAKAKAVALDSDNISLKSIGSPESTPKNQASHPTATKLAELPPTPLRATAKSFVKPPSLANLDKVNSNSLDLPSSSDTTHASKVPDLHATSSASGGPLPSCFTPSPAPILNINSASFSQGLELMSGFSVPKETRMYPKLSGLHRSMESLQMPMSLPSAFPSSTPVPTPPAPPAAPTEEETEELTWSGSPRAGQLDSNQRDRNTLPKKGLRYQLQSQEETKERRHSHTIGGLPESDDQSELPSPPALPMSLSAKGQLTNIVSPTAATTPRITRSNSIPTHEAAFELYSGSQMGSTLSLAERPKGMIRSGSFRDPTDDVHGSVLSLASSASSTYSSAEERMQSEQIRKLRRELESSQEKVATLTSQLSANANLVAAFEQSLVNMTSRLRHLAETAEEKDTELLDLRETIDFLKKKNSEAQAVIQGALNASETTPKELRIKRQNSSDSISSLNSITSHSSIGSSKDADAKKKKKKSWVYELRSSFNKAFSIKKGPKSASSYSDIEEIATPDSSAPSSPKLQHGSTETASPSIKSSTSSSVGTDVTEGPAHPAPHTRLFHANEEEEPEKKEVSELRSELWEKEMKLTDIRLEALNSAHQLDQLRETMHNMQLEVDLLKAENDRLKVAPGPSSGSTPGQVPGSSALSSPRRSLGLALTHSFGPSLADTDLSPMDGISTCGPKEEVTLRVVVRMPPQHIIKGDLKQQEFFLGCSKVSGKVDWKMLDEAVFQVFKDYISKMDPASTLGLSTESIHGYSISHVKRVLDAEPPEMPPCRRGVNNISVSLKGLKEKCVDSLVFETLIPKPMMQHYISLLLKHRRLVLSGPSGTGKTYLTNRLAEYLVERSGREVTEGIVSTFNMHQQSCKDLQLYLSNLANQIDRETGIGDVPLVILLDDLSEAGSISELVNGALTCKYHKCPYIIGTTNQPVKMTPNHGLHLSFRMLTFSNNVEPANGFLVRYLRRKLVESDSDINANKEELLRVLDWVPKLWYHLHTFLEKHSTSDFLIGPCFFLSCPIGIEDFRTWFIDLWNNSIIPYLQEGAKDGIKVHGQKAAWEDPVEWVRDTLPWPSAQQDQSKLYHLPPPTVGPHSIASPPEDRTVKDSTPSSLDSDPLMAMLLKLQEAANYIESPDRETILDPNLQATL

What was measured:
Experiment in all cases: log2 fold change, soluble protein after heating vs DMSO (PISA); higher = thermal stabilisation; K562 cells, 10 uM, 30 min; active = over 0.2 and 3.5 SD of the protein, either way, in both replicates (recomputed)
[1] = compound: NC(=O)Nc1cc(-c2cccc(F)c2)sc1C(=O)N[C@H]1CCCNC1
Summary of the method: (§1)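 K562 cells at 2×10^6 cells/mL were treated for 30 min with 10 μM compound, and aliquots were heated for 3 min over 48°C-58°C before pooling. Extraction used PBS with 0.5% NP-40 at 4°C, and soluble protein was the supernatant after 21,000xg for 90 min, measured by TMTpro 16plex LC-MS/MS with channel sums equalised. Thermal stability values, relative to control samples and from duplicates, are log2 fold changes.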

[2] = compound: NC(=O)c1cnc(N[C@@H]2CCCC[C@@H]2N)nc1Nc1cccc(-n2nccn2)c1
Summary of the method: as §1

[3] = compound: NC1(c2ccc(-c3nc4ccn5c(=O)[nH]nc5c4cc3-c3ccccc3)cc2)CCC1
Summary of the method: as §1

[4] = compound: NCC(=O)Nc1ccc(-n2nc(C(F)(F)F)cc2-c2ccc3c(ccc4ccccc43)c2)cc1
Summary of the method: as §1

entinostat = compound: Nc1ccccc1NC(=O)c1ccc(CNC(=O)OCc2cccnc2)cc1 [entinostat]
Summary of the method: as §1

vorinostat = compound: O=C(CCCCCCC(=O)Nc1ccccc1)NO [vorinostat]
Summary of the method: as §1

citarinostat = compound: O=C(CCCCCCNC(=O)c1cnc(N(c2ccccc2)c2ccccc2Cl)nc1)NO [citarinostat]
Summary of the method: as §1

silmitasertib = compound: O=C(O)c1ccc2c(c1)nc(Nc1cccc(Cl)c1)c1ccncc12 [silmitasertib]
Summary of the method: as §1

[5] = compound: O=C1NC(=O)C(c2cnc3ccccn23)=C1c1cn2c3c(cc(F)cc13)CN(C(=O)N1CCCCC1)CC2
Summary of the method: as §1

[6] = compound: c1cc(OCCN2CCCCC2)cc(-c2n[nH]c3ccc(-c4nnc[nH]4)cc23)c1
Summary of the method: as §1

entospletinib = compound: c1cn2cc(-c3ccc4cn[nH]c4c3)nc(Nc3ccc(N4CCOCC4)cc3)c2n1 [entospletinib]
Summary of the method: as §1

Measured: log2 fold change

NECTIN2 (UniProt Q92692)
inactive: [1] 0 | [2] 0.107 | [3] 0.056 | [4] 0.099 | entinostat -0.029 | vorinostat -0.041 | citarinostat 0.034 | silmitasertib -0.081 | [5] -0.03 | [6] -0.006

NA, A0A0B4J2A0
inactive: [1] -0.025 | [2] 0.029 | [3] -0.061 | [4] 0.031 | entinostat 0.029 | vorinostat 0.05 | citarinostat 0.029 | silmitasertib 0.017 | [5] -0.059 | [6] -0.012

NDUFB1 (UniProt O75438)
inactive: [1] 0.053 | [2] -0.114 | [3] -0.007 | [4] -0.134 | entinostat 0.055 | vorinostat 0.108 | citarinostat -0.026 | silmitasertib -0.014 | [5] -0.124 | [6] 0.012

NDUFB5 (UniProt O43674)
inactive: [1] 0.007 | [2] 0.005 | [3] -0.05 | [4] 0.052 | entinostat 0.024 | vorinostat -0.035 | citarinostat 0.011 | silmitasertib 0.007 | [5] 0.018 | [6] -0.024 | entospletinib -0.018

NEDD4 isoform 4 (UniProt P46934)
inactive: [1] -0.043 | [2] -0.027 | [3] -0.187 | [4] -0.074 | entinostat 0.029 | vorinostat -0.04 | citarinostat 0.084 | silmitasertib 0.064 | [5] -0.008 | [6] 0.013

NCEH1 isoform 2 (UniProt Q6PIU2)
inactive: [1] 0 | [2] -0.048 | [3] -0.059 | [4] -0.031 | entinostat -0.033 | vorinostat -0.009 | citarinostat 0.042 | silmitasertib -0.022 | [5] 0.003 | [6] -0.007 | entospletinib 0.056

NAMPT (UniProt P43490)
inactive: [1] 0.011 | [2] -0.013 | [3] 0.036 | [4] 0.007 | entinostat -0.012 | vorinostat -0.017 | citarinostat 0.014 | silmitasertib -0.019 | [5] -0.034 | [6] -0.014 | entospletinib 0.001

NCALD (UniProt P61601)
inactive: [1] 0.01 | [2] 0.004 | [3] -0.038 | [4] 0.005 | entinostat 0.034 | vorinostat -0.019 | citarinostat -0.02 | silmitasertib 0.057 | [5] -0.035 | [6] -0.037 | entospletinib 0

NASP (UniProt P49321)
inactive: [1] -0.009 | [2] -0.081 | [3] -0.06 | [4] -0.054 | entinostat 0.035 | vorinostat 0.028 | citarinostat 0.035 | silmitasertib 0.063 | [5] -0.034 | [6] -0.02

N4BP1 (UniProt O75113)
inactive: [1] -0.023 | [2] -0.065 | [3] -0.098 | [4] -0.055 | entinostat -0.09 | vorinostat 0.056 | citarinostat 0.075 | silmitasertib 0.043 | [5] -0.133 | [6] -0.011 | entospletinib -0.124

NAPRT (UniProt Q6XQN6)
inactive: [1] -0.008 | [2] 0.003 | [3] -0.003 | [4] -0.006 | entinostat -0.023 | vorinostat -0.027 | citarinostat 0.02 | silmitasertib -0.034 | [5] -0.05 | [6] -0.019 | entospletinib -0.029

NDUFAF1 (UniProt Q9Y375)
inactive: [1] 0.02 | [2] 0.003 | [3] -0.032 | [4] -0.074 | entinostat -0.03 | vorinostat 0 | citarinostat 0.09 | silmitasertib 0 | [5] 0.019 | [6] -0.06 | entospletinib -0.018

NAT10 (UniProt Q9H0A0)
inactive: [1] 0.202 | [2] 0.1 | [3] 0.265 | [4] 0.054 | entinostat -0.006 | vorinostat 0.104 | citarinostat -0.183 | silmitasertib 0.101 | [5] 0.236 | [6] -0.079 | entospletinib 0.002

NCR3LG1 (UniProt Q68D85)
inactive: [1] -0.183 | [2] -0.062 | [3] -0.126 | [4] -0.036 | entinostat -0.043 | vorinostat 0.09 | citarinostat 0.045 | silmitasertib -0.003 | [5] 0.051 | [6] -0.171 | entospletinib 0.308

NDUFB9 (UniProt Q9Y6M9)
inactive: [1] -0.005 | [2] -0.02 | [3] -0.005 | [4] 0.001 | entinostat -0.011 | vorinostat 0.007 | citarinostat 0.011 | silmitasertib 0.005 | [5] -0.057 | [6] -0.056 | entospletinib 0.053

NADK2 (UniProt Q4G0N4)
inactive: [1] 0.015 | [2] -0.024 | [3] -0.022 | [4] -0.028 | entinostat -0.017 | vorinostat -0.035 | citarinostat 0.007 | silmitasertib -0.029 | [5] -0.002 | [6] -0.025 | entospletinib -0.013

NDUFA8 (UniProt P51970)
inactive: [1] -0.052 | [2] -0.025 | [3] -0.065 | [4] -0.036 | entinostat 0.011 | vorinostat 0.019 | citarinostat 0.024 | silmitasertib -0.013 | [5] -0.045 | [6] -0.044 | entospletinib -0.011

NECAP1 (UniProt Q8NC96)
inactive: [1] -0.05 | [2] -0.024 | [3] -0.078 | [4] -0.03 | entinostat 0.016 | vorinostat 0.039 | citarinostat 0.046 | silmitasertib -0.045 | [5] -0.059 | [6] -0.008 | entospletinib -0.035

NADSYN1 (UniProt Q6IA69)
inactive: [1] -0.035 | [2] 0.043 | [3] -0.033 | [4] 0 | entinostat -0.033 | vorinostat -0.026 | citarinostat -0.032 | silmitasertib -0.016 | [5] 0.013 | [6] -0.087 | entospletinib 0.232

NDOR1 isoform 2 (UniProt Q9UHB4)
inactive: [1] -0.037 | [2] 0.003 | [3] -0.05 | [4] 0.017 | entinostat -0.042 | vorinostat -0.016 | citarinostat -0.003 | silmitasertib 0.102 | [5] -0.05 | [6] -0.036 | entospletinib -0.167

MZT2A (UniProt Q6P582)
inactive: [1] 0.053 | [2] 0.044 | [3] 0.025 | [4] -0.172 | entinostat 0.048 | vorinostat -0.256 | citarinostat -0.01 | silmitasertib 0.007 | [5] -0.089 | [6] -0.118 | entospletinib -0.037

NAA50 (UniProt Q9GZZ1)
inactive: [1] 0.007 | [2] 0.035 | [3] -0.028 | [4] 0.008 | entinostat 0.044 | vorinostat 0.049 | citarinostat 0.072 | silmitasertib -0.012 | [5] -0.032 | [6] 0.014 | entospletinib -0.049

NAP1L4 isoform 2 (UniProt Q99733)
inactive: [1] -0.034 | [2] -0.003 | [3] -0.001 | [4] 0.021 | entinostat 0.008 | vorinostat -0.027 | citarinostat -0.006 | silmitasertib 0.02 | [5] -0.037 | [6] 0.031 | entospletinib 0.012

NDRG3 (UniProt Q9UGV2)
inactive: [1] 0.04 | [2] -0.11 | [3] -0.049 | [4] -0.047 | entinostat 0.039 | vorinostat 0.002 | citarinostat 0.017 | silmitasertib -0.02 | [5] -0.038 | [6] -0.037 | entospletinib -0.029

NDUFS3 (UniProt O75489)
inactive: [1] 0.019 | [2] 0 | [3] -0.032 | [4] 0.039 | entinostat -0.02 | vorinostat 0.012 | citarinostat 0.019 | silmitasertib -0.039 | [5] 0.029 | [6] -0.015 | entospletinib 0.027

NAGLU (UniProt P54802)
inactive: [1] 0.095 | [2] -0.016 | [3] -0.144 | [4] -0.016 | entinostat 0.017 | vorinostat -0.023 | citarinostat -0.062 | silmitasertib 0.151 | [5] 0.094 | [6] 0.024 | entospletinib 0.003

NAV1 (UniProt Q8NEY1)
inactive: [1] -0.035 | [2] 0.192 | [3] -0.119 | [4] -0.061 | entinostat -0.094 | vorinostat -0.085 | citarinostat 0.03 | silmitasertib 0.029 | [5] 0.129 | [6] -0.041 | entospletinib -0.008
